Mtb cholesterol medium: 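Whole-cell growth test on Mycobacterium tuberculosis, read after 4 days in a medium based on cholesterol and the lipid DPPC; the read-out is not stated. Tested at 50 µM. Higher reads as more growth inhibition (inferred: compounds with an IC50 in retests scored well above the rest). About 69,000 compounds were tested under these conditions; 0.54% (about 370) showed 50% or more at least once.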
Mtb glucose medium: 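Whole-cell growth test on Mycobacterium tuberculosis, read after 3 days in glucose-containing 7H9 medium; the read-out is not stated. Concentration: 50 µM. The record gives no direction; compounds that gave an IC50 in retests scored well above the rest, so higher reads as more growth inhibition. Size under these conditions: about 69,000 compounds, about 760 of them at 50% or above in at least one test.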

The filed quantity is “Percent Effect” (%).
How 0% and 100% were set is not recorded. Most values in the screen are low, and negative values occur.
This is an unselected part of the compounds tested.
Two or more numbers in one place are separate tests of the same structure; such repeats can differ widely.

Compound,Mtb cholesterol medium,Mtb glucose medium
c1ccc(Cn2cccn2)c(CNCC2CNc3ccnn3C2)c1 (stereo not given),-15.71,24.83
O=C(O)C(F)(F)F.O=C(O)C(F)(F)F.[H][C@@]12COC[C@]1(C(=O)NC1CC(F)(F)C1)CN(Cc1cccnc1)C2,-22.5,9.142
O[C@H]1CN(Cc2cccc(C(F)(F)F)c2)CC[C@@]12CCCO2,11.78,16.88
COCCCNCc1cc(O)c2cc(C)cc(C)c2n1,-17.98,-27.87
CCOc1cccc(COC(=O)c2cscn2)n1,0.5999,23.4
Cc1ccc(C2CSCCN2C(=O)c2cccnc2)cc1 (stereo not given),-27.32,3.17 and 2.122
CC1CN(C)CCN1C(=O)Nc1nc(-c2cccn2C)cs1 (stereo not given),8.889,1.143 and -8.67
N#Cc1ncn(CCC(=O)Nc2cccc(Cl)c2)n1,-3.432,-18.06
COc1cc(F)ccc1N(C)Cc1ccccn1,8.089,0.6016
CC(C)n1cc(CN2CCCN(C(=O)c3ccco3)CC2)cn1,-20.67 and -2.54,18.69
O=C(CN1CCOC(Cn2cccn2)C1)NCc1cccs1 (stereo not given),-3.035,1.541
C=C(C)COc1ccccc1C(=O)N(C)C(C)c1c(C)n[nH]c1C (stereo not given),8.452,-13.43
O=C(Nc1ccccc1Cn1cncn1)C1CCN(C2CCCCC2)C1 (stereo not given),10.33,0.3085
CCN(CC)c1ccc(NC(=O)NCC2CCOC2)cn1 (stereo not given),-55.3,-12.62
CC(C)S(=O)(=O)N1CCN(C(=O)c2cnn(C)c2Cl)CC1,-25.46,-27.53
CN(C)[C@@H]1CCN(C(=O)NC2CCCC2)[C@H]1Cc1cnn(C)c1.O=C(O)C(F)(F)F,10.89,19.89
O=C(O)C(F)(F)F.O=C(O)C(F)(F)F.[H][C@@]12COC[C@]1(COc1ccccn1)CN(c1ncc(F)cn1)C2,5.075,-7.116
O=C1CCC2(CCN(Cc3nccs3)CC2)CN1CCCO,-14.77,-27.21
O=C(NCC1CCS(=O)(=O)C1)Nc1ccccn1 (stereo not given),-23.48,-8.636 and -12.85
O=C(NCc1ccc(-n2cncn2)nc1)N(CC1CCOC1)C1CC1 (stereo not given),-10.49,-19.5
O=C(O)C(F)(F)F.[H][C@@]12CN(Cc3ccco3)CCO[C@]1([H])CN(S(=O)(=O)CCC)C2,2.905,2.047 and 31.35
COc1ccc(-c2csc3c2c(N)nc(=O)n3CCN(C)C)cc1,8.849,-2.06
COc1cc2c(cc1OC)CN(Cc1ncccc1C(=O)O)CC2,-13.44,-3.316 and 7.709
CCc1ncncc1C(=O)NCCN1CCC(C)CC1,-13.13,6.588 and 6.609
CCOCC1COCCC12CCN(C(=O)CCOC)CC2 (stereo not given),-9.856,-17.21
Cc1c[nH]nc1C1CN(c2cnccn2)CCO1 (stereo not given),-1.535 and 5.597,-29.15
CC(C)(C)c1nc(CN(CCC2CCCCC2)CC(N)=O)no1,10.36,-9.065
COc1cc(CCC(=O)N2CCC(c3cnccn3)CC2)on1,7.737 and 20.55,-5.862
CCOCCC(=O)N1CCCN(c2ccccc2C)CC1,17.47,23.15
Cc1cc(C(=O)Nc2nc3c(s2)CN(S(=O)(=O)C2CC2)CC3)c(C)o1,11.06,24.08
Cn1nc(CN2CCCC2)c2c1CN(C(=O)Nc1cccc(F)c1)CC2.O=C(O)C(F)(F)F,-5.38,1.725 and 5.361
COC(=O)c1sc2cccc(F)c2c1CNC(=O)C1CCCO1 (stereo not given),-14.37,-9.773
CCCc1nnc(N2CCC(N3CCCCCC3)CC2)o1,6.579,14.56 and -2.781
CCC[C@@H]1CN(C(=O)Cc2sc(C)nc2C)C[C@H]1C(=O)O,4.182 and -8.675,-4.747 and -5.637
O=C(CN1CCNCC1)N1CC[C@@H](c2ccc3ccccc3c2)[C@H](O)C1,12.02,17.07
c1cnn(CC2CN(c3ncnc4[nH]ccc34)CCO2)c1 (stereo not given),-2.214,22.01
Cn1nccc1C(=O)N1CCOC(Cc2cccc(C(F)(F)F)c2)C1 (stereo not given),-5.946,5.426
Cc1cc(C(=O)NCCC(C)C)ccc1NS(C)(=O)=O,-13.39,-4.482
[H][C@@]12CN(C(=O)c3ccc(C)nc3)C[C@]1([H])OCCN2C(C)C,-23.98,-7.475
Cc1ccc(F)cc1NC(=O)CCn1cncn1,-5.04 and -0.6562,-3.911
Cc1cc(C(=O)CN2CCN(c3ncccn3)CC2)c(C)n1C(C)C,-24.12,-44.38 and -3.159
Cc1cc(C)cc(OCCC(=O)N2CCCC(n3cncn3)C2)c1 (stereo not given),-8.657,5.142
[H][C@]12CC[C@@H](Nc3cccnn3)[C@@]1([H])CN(Cc1ccc3cc[nH]c3c1)C2,2.405 and -17.38,-0.3926
O=C(CCOc1ccc(Cl)cc1)N1CCN(c2cnccn2)CC1,3.641,-4.514
O=C(NC1CC1)C1CNCCN1C(=O)CCOc1ccccc1 (stereo not given),-2.377,-0.9475
Cc1noc(C)c1CN(C)C(=O)c1cnc(C2CC2)nc1O,-41.66,-46.75
Cl.O=C(c1cc2c(s1)CCCC2)N1CCc2nc(C3CCCN3)ncc2C1 (stereo not given),-24.78,7.749
CCC(=O)N1CCC(c2nc(N3CCCC3)ncc2S(C)(=O)=O)CC1,-4.399 and -16.78,-27.22
Cc1ccc(C2CSCCN2CCS(C)(=O)=O)cc1 (stereo not given),2.649,5.12 and -14.12
CCN(CC1CN(Cc2nc(C3CC3)no2)CCO1)c1cccnn1 (stereo not given),-7.87 and -7.51,17.91
CCc1nccn1CC1CCCN1S(=O)(=O)N1CCCOCC1 (stereo not given),-16.12,-6.657
CC(C)c1noc(C(C)N2CCN(CCCN3CCCC3=O)CC2)n1 (stereo not given),6.991,0.9778 and 35.75
Cc1ccc(O)c(C(=O)N2CCCC2CC(=O)c2cnn(C)c2)c1 (stereo not given),-12.51,-3.019 and 12.32
CC1CN(Cc2noc(C3CC3)n2)CCN1Cc1noc(C2CC2)n1 (stereo not given),-2.877,0.1687
O=C(CN1CCc2cncnc2C1)NC(c1ccccc1)C1CC1 (stereo not given),10.96,8.678 and -9.487
Cc1ccc(OC2(C(=O)NC(C)c3csc(C)n3)CCNCC2)cc1 (stereo not given),-26.26,25.02
CC(=O)c1ccc(NC(=O)NC(C(=O)N(C)C)C(C)C)cc1 (stereo not given),-19.95,-15.63
COc1cc(C)c(S(=O)(=O)NCc2cccnc2N(C)C)c(C)c1,-0.9587,10.43
CC(C)(C)Nc1nc(-c2cccnc2)c(-c2ccnc(NCCO)n2)s1,-2.575,18.75

Once more, the final 7:

Compound	Mtb cholesterol medium	Mtb glucose medium
Cc1ccc(O)c(C(=O)N2CCCC2CC(=O)c2cnn(C)c2)c1 (stereo not given)	-12.51	-3.019 and 12.32
CC1CN(Cc2noc(C3CC3)n2)CCN1Cc1noc(C2CC2)n1 (stereo not given)	-2.877	0.1687
O=C(CN1CCc2cncnc2C1)NC(c1ccccc1)C1CC1 (stereo not given)	10.96	8.678 and -9.487
Cc1ccc(OC2(C(=O)NC(C)c3csc(C)n3)CCNCC2)cc1 (stereo not given)	-26.26	25.02
CC(=O)c1ccc(NC(=O)NC(C(=O)N(C)C)C(C)C)cc1 (stereo not given)	-19.95	-15.63
COc1cc(C)c(S(=O)(=O)NCc2cccnc2N(C)C)c(C)c1	-0.9587	10.43
CC(C)(C)Nc1nc(-c2cccnc2)c(-c2ccnc(NCCO)n2)s1	-2.575	18.75

From ChEMBL document CHEMBL3988442, “University of Dundee, Small-Polar-MMV Screening Library” (2021).